Experimental findings from US20190307798A1 are described below.

Results are given in words; binding and its absence hold for the method and conditions named. Some binding calls cover weakened binding; strength is not graded here.

The target of this test is Hepatitis B virus surface antigen (HBsAg) (Hepatitis B virus) (UniProt P03138). In words: electron microscopy count of HBsAg particles left in HepG2.2.15-conditioned media 24 hours after exposure to CAR T-cells (depletion against Ctrl-G4m-CAR T-cells).

B1: XTL19 - IgG4m - CD28 - Zeta chimeric antigen receptor (protein)
chain: QVQLVESGGGVVQPGGSLRLSCAPSGFVFRSYGMHWVRQTPGKGLEWVSLIWHDGSNRFYADSVKGRFTISRDNSKNTLYLQMNSLRAEDTAMYFCARERLIAAPAAFDLWGQGTLVTVSSGGGGSGGGGSGGGGSSYVLTQPPSVSVAPGKTARISCGGNNIGTKNVHWYQQKPGQAPVLVVYADSDRPSGIPERFSGSNSGNTATLTISRVEVGDEADYYCQVWDSVSYHVVFGGGTTLTVLGSGGGGSESKYGPPCPSCPAPPVAGPSVFLFPPKPKDTLMISRTPEVTCVVVDVSQEDPEVQFNWYVDGVEVHNAKTKPREEQFQSTYRVVSVLTVLHQDWLNGKEYKCKVSNKGLPSSIEKTISKAKGQPREPQVYTLPPSQEEMTKNQVSLTCLVKGFYPSDIAVEWESNGQPENNYKTTPPVLDSDGSFFLYSRLTVDKSRWQEGNVFSCSVMHEALHNHYTQKSLSLSPGKKDPKFWVLVVVGGVLACYSLLVTVAFIIRVKFSRSADAPAYQQGQNQLYNELNLGRREEYDVLDKRRGRDPEMGGKPRRKNPQEGLYNELQKDKMAEAYSEIGMKGERRRGKGHDGLYQGLSTATKDTYDALHMQALPPR
Regarding B1, the binding entry is on record as “binds”.
